In the supplement of paper PMC11006884:
This is a selection; strong and weak results do not stand in their true shares.

The chains behind the UniProt entries cited, without tags or fusion partners. Where a name states a change or a piece, a line headed by the entry shows the natural chain unless it says otherwise.
UniProt P49589: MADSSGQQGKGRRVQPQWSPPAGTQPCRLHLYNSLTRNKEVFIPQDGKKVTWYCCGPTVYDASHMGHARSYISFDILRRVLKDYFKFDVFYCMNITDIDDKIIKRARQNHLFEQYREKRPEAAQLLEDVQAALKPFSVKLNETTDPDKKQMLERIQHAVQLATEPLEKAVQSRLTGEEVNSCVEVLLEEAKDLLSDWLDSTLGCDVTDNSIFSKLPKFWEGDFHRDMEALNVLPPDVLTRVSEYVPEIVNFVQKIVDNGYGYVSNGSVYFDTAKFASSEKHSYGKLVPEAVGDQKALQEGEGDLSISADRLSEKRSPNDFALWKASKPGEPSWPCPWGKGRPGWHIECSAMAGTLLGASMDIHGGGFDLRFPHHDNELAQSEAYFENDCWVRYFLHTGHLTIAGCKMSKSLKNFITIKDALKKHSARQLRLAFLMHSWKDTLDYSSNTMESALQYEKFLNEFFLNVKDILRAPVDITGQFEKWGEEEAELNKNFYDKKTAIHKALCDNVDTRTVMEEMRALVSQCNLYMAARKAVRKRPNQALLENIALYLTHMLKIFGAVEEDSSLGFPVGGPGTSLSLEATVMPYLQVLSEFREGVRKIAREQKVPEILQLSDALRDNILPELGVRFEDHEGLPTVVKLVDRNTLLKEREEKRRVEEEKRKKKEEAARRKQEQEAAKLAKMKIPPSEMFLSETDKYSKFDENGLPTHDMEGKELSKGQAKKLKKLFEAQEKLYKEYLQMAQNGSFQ
UniProt P49327, whole entry, looked up: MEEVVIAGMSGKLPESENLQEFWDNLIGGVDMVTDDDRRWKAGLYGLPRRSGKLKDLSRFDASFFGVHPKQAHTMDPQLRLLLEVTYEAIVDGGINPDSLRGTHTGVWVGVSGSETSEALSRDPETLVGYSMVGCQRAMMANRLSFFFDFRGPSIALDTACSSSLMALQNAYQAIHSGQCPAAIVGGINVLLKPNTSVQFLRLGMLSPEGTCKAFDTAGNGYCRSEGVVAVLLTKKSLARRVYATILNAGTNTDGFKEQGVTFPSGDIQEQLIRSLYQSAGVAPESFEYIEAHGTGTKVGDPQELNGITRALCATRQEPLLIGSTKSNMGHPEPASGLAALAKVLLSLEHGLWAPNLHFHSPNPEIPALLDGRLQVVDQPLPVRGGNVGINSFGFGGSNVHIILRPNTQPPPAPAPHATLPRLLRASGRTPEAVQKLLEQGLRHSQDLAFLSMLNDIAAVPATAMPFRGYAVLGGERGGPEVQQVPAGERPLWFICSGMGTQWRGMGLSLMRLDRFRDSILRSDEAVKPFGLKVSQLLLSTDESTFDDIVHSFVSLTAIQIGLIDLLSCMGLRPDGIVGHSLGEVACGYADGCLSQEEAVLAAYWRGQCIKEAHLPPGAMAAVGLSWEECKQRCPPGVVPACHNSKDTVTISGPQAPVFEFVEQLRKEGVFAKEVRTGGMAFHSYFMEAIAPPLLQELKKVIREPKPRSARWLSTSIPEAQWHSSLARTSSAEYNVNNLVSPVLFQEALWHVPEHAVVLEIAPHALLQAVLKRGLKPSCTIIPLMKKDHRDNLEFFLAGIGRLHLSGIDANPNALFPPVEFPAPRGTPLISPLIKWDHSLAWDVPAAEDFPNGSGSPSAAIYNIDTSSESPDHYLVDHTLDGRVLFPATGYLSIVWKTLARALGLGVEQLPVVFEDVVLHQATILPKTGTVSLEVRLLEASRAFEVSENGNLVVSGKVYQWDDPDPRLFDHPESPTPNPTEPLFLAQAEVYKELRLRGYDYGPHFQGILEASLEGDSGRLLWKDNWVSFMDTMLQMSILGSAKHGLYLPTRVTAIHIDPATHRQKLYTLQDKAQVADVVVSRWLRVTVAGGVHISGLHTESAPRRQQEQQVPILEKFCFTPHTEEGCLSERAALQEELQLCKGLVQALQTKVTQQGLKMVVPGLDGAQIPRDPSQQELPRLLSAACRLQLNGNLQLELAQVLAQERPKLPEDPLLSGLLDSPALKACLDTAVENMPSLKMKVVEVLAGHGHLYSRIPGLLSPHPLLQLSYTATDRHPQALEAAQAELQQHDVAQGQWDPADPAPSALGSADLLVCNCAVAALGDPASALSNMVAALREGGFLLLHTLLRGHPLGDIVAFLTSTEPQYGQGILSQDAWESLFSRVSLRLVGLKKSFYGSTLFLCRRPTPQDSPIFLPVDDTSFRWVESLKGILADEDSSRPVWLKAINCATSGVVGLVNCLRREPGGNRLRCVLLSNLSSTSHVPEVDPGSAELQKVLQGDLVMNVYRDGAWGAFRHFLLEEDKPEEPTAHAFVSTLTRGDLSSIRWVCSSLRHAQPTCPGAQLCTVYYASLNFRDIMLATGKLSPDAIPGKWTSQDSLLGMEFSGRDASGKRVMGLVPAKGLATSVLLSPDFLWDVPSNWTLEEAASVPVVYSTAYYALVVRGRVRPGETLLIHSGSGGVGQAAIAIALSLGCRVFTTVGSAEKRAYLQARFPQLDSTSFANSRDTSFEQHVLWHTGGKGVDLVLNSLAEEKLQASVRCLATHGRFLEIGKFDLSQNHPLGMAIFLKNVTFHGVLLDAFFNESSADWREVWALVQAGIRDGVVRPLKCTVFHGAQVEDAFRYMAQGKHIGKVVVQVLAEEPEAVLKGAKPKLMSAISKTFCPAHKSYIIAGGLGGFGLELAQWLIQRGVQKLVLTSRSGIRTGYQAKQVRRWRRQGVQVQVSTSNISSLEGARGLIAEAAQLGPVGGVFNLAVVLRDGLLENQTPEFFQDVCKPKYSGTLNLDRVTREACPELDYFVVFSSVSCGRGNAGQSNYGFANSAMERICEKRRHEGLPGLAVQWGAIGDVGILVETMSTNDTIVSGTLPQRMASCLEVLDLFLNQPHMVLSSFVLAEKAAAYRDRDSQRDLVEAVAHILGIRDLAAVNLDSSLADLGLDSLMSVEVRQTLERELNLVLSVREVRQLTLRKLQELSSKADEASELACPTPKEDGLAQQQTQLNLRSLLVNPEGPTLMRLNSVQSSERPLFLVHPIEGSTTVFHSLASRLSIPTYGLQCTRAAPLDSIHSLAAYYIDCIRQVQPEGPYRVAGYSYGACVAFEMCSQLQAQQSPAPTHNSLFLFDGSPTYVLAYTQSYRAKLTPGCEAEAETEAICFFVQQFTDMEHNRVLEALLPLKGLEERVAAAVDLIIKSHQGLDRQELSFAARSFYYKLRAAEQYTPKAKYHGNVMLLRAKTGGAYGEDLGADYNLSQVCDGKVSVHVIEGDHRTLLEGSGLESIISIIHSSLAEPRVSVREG
UniProt P49006: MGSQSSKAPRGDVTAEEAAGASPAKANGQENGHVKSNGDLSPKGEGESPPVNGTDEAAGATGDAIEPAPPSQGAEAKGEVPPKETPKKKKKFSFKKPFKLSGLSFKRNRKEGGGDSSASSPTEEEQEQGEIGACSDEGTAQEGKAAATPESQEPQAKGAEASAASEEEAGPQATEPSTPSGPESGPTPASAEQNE
UniProt P47712: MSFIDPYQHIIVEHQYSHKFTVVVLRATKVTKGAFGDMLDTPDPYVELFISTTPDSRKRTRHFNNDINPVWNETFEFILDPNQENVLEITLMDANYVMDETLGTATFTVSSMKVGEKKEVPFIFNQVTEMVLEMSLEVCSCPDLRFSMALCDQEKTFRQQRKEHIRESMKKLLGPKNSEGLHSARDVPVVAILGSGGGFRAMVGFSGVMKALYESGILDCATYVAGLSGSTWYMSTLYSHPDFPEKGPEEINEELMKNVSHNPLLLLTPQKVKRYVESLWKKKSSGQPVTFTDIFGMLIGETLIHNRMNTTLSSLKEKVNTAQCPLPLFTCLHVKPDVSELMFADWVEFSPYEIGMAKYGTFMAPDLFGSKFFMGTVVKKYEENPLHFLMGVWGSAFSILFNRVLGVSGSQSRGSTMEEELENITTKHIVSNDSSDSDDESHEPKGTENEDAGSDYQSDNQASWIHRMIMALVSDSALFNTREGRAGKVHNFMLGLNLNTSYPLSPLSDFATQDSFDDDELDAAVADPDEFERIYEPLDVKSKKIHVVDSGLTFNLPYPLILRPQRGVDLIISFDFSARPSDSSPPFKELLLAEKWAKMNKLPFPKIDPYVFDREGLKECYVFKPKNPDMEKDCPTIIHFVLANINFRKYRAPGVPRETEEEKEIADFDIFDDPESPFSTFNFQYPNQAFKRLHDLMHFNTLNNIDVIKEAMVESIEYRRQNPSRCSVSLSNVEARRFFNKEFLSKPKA
UniProt P48634: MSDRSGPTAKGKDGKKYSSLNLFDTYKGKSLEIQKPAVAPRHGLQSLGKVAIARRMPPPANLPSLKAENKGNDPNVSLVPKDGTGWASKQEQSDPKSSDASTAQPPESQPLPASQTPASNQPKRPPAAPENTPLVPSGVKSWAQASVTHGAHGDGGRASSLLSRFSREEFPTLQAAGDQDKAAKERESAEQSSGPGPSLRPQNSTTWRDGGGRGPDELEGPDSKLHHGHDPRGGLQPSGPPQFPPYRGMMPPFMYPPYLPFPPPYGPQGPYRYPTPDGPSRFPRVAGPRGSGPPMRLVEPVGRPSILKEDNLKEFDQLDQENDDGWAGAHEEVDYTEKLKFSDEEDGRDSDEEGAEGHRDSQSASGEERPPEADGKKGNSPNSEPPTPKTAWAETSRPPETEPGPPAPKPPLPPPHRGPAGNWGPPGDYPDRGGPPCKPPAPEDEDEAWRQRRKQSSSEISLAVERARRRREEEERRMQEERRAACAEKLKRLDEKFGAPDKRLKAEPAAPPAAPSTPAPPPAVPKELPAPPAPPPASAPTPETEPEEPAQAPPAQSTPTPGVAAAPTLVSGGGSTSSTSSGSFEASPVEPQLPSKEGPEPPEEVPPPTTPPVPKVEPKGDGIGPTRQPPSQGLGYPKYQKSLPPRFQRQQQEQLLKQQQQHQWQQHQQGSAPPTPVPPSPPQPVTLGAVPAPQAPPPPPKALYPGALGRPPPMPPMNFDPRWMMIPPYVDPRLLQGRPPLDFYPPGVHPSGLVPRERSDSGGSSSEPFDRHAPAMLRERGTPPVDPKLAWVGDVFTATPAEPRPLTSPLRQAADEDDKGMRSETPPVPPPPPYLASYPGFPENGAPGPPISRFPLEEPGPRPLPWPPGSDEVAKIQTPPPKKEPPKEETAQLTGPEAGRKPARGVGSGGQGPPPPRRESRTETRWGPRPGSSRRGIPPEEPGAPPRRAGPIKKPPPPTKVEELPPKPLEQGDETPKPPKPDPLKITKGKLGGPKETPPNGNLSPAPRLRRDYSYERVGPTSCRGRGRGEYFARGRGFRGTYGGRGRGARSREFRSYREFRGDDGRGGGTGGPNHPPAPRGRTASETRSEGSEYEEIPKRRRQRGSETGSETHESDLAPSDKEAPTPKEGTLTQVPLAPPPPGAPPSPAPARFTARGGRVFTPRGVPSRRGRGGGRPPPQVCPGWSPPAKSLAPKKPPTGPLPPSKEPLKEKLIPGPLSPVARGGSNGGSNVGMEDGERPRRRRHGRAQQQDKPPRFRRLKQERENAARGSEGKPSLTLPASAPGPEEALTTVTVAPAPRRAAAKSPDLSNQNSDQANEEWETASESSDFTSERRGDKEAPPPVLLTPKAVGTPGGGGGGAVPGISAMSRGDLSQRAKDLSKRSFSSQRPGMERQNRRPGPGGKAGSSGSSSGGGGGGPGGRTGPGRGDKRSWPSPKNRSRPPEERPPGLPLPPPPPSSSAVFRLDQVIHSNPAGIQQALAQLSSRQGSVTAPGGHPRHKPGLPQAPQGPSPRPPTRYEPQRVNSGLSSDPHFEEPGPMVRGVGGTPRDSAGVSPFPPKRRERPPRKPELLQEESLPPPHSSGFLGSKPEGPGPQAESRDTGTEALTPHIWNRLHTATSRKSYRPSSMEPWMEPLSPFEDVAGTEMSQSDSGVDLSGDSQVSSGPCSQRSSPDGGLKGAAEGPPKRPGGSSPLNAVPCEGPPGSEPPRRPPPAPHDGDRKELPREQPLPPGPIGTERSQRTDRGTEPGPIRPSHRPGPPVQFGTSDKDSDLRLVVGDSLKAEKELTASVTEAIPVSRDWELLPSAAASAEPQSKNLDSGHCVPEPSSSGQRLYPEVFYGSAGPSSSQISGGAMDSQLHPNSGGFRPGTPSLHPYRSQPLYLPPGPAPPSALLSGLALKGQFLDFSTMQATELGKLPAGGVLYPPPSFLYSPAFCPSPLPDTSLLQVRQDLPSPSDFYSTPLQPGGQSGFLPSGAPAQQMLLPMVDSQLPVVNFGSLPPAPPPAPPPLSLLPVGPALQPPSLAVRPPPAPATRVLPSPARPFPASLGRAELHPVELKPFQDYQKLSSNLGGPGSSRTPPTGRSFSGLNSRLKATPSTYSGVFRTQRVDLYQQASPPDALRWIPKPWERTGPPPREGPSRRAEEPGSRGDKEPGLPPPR
UniProt P51452: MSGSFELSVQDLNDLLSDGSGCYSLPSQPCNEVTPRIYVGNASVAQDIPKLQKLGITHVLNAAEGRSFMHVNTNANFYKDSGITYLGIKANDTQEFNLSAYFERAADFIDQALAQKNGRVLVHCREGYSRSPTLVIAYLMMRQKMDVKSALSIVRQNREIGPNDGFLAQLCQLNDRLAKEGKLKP

Compound: COC(=O)C#Cc1ccccc1 [methyl 3-phenylpropiolate]
Experiment: log2 ratio of iodoacetamide-alkyne labeling of the cysteine site, DMSO over compound (competition); higher = stronger covalent engagement of the cysteine by the compound, active = 1 or more
Settings: 500 µM; treatment time 1 h; system: HEK293T cell lysate
How it was run: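 Three replicates, each with duplicate channels, were prepared from HEK293T lysate (2 mg/mL) treated with vehicle or electrophile at 500 µM for 1 h at ambient temperature. Iodoacetamide alkyne was then applied for 1 h, and samples were clicked to sCIP-TMT reagents, pooled, trypsin-digested overnight at 37 °C, enriched on streptavidin, acid-eluted and analysed on Orbitrap Eclipse LC-MS/MS with FAIMS, with FragPipe quantification. The log2 competition ratio per cysteine is the mean control-channel divided by the mean compound-channel reporter intensity. Cysteines quantified in only one replicate were left out.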

log2 ratio of iodoacetamide-alkyne labeling, inactive:
METAP2 C135 (UniProt P50579) 0.274, MRPL19 C248 (UniProt P49406) 0.128, MAP1B C2041 (UniProt P46821) 0.488, IDH3G C81 (UniProt P51553) 0.412, MCM2 C522 (UniProt P49736) -0.16, IDH3A C331 (UniProt P50213) 0.257, RANGAP1 C274 (UniProt P46060) 0.753, CCT4 C450 (UniProt P50991) 0.277, CARS C27 (UniProt P49589) 0.454, METAP2 C298 (UniProt P50579) 0.1, MAP1B C1228 (UniProt P46821) 0.169, RPL21 C56 (UniProt P46778) 0.699, FASN C779 (UniProt P49327) 0.317, UniProt P49459_C88 0.243, MARCKSL1 C134 (UniProt P49006) 0.0937, MKI67 C903 (UniProt P46013) 0.808, MKI67 C1981 (UniProt P46013) -0.201, IREB2 C137 (UniProt P48200) 0.995, IDH3A C351 (UniProt P50213) -0.35, GMPS C554 (UniProt P49915) 0.0582, NASP C254 (UniProt P49321) 0.246, UniProt P49840_C408 0.29, FXR2 C270 (UniProt P51116) 0.306, UTRN C3023 (UniProt P46939) 0.689, PLA2G4A C726 (UniProt P47712) 0.482, QARS C657 (UniProt P47897) 0.375, RPL28 C13 (UniProt P46779) 0.318, UniProt P48634_C1821 0.222, GSS C294 (UniProt P48637) 0.15, PHKA1 C1082 (UniProt P46020) 0.236, FASN C2273 (UniProt P49327) 0.224, CTCF C268 (UniProt P49711) -0.0241, DUSP3 C171 (UniProt P51452) 0.148, EMD C147 (UniProt P50402) 0.403, NSF C599 (UniProt P46459) 0.286, RPL27A C144 (UniProt P46776) 0.155
